Values from PubChem BioAssay AID1259331 (Drosophila RNAi Screening Center, 2017).
Purpose: 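Fly transmembrane-protein genes that affect zinc toxicity in cultured cells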 (primary screen). Cell system: Drosophila S2R+ cells. Reagent: long dsRNA against Drosophila genes. Timing: 5 days (4 days knock-down, then 1 day zinc). Challenge: zinc chloride at 15 mM final level for 1 day. Read-out: 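Total cellular ATP measured by luciferase luminescence as a viability proxy, turned into Z scores from three plate copies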. Reading the numbers: mean Z score: higher = more ATP than other wells, better survival under zinc; ATP luminescence: higher = more ATP, more viable cells. Rule for the call: 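a reagent is called a hit when its Z score is above 1.5 or below -1.5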. Meaning of the calls: active = hit, ATP up or down; inactive = not a hit.
The whole screen tested about 3,100 reagents; shown is a random part of them. 126 of all reagents (4.1%) count as active. 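Calls are per reagent; zinc was so toxic that few knock-downs lowered ATP further, so most hits raise ATP.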 Raw values vary from plate to plate and are shown uncorrected. Entries without a mark were called inactive. Not given: the amount of reagent.

AdoR (Adenosine receptor) [DRSC16556] | mean Z score = 3.25 (active); ATP luminescence, replicate 1 = 1.30e5; ATP luminescence, replicate 2 = 1.09e5
AdoR (Adenosine receptor) [DRSC28071] | mean Z score = 0.143; ATP luminescence, replicate 1 = 60975; ATP luminescence, replicate 2 = 57768
AstA-R1 (Allatostatin A receptor 1) [DRSC17278] | mean Z score = 0.131; ATP luminescence, replicate 1 = 63427; ATP luminescence, replicate 2 = 74913
AstA-R1 (Allatostatin A receptor 1) [DRSC17727] | mean Z score = -0.967; ATP luminescence, replicate 1 = 49761; ATP luminescence, replicate 2 = 50275

Called active, of those listed so far:
AdoR (Adenosine receptor) [DRSC16556] | mean Z score = 3.25 (active); ATP luminescence, replicate 1 = 1.30e5; ATP luminescence, replicate 2 = 1.09e5

The list goes on.
AstC-R1 (Allatostatin C receptor 1) [DRSC10799] | mean Z score = -0.121; ATP luminescence, replicate 1 = 75192; ATP luminescence, replicate 2 = 59552
AstC-R1 (Allatostatin C receptor 1) [DRSC29648] | mean Z score = 0.0104; ATP luminescence, replicate 1 = 63890; ATP luminescence, replicate 2 = 59174
Rh5 (Rhodopsin 5) [DRSC03412] | mean Z score = -0.213; ATP luminescence, replicate 1 = 50429; ATP luminescence, replicate 2 = 56187
Rh5 (Rhodopsin 5) [DRSC25429] | mean Z score = 0.214; ATP luminescence, replicate 1 = 58092; ATP luminescence, replicate 2 = 63119
CG13579 [DRSC04215] | mean Z score = 1.09; ATP luminescence, replicate 1 = 62856; ATP luminescence, replicate 2 = 42349
CG13579 [DRSC25603] | mean Z score = -0.157; ATP luminescence, replicate 1 = 62336; ATP luminescence, replicate 2 = 51372
nAChRalpha4 (nicotinic Acetylcholine Receptor alpha4) [DRSC11925] | mean Z score = -0.748; ATP luminescence, replicate 1 = 52795; ATP luminescence, replicate 2 = 54510
nAChRalpha4 (nicotinic Acetylcholine Receptor alpha4) [DRSC26817] | mean Z score = 0.0726; ATP luminescence, replicate 1 = 64130; ATP luminescence, replicate 2 = 58643
